Data as given in the supplement of paper PMC10849652.
This is one part of the list.

Protein sequences, listed by entry. Tags and fused reporters are not part of them. Lines headed by an entry give the natural chain unless they say otherwise; changes in a name come on top.
UniProt P09669, whole entry, looked up: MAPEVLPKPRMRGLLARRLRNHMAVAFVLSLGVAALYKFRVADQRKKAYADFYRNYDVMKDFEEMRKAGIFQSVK
UniProt Q9Y6N1: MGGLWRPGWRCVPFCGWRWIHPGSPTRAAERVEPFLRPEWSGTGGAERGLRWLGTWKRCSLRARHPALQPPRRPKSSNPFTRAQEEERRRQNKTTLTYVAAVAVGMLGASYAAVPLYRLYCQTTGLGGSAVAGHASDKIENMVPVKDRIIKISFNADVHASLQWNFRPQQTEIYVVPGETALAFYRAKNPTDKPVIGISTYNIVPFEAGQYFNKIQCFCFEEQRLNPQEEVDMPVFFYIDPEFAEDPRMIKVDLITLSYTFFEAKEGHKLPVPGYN
UniProt P31327: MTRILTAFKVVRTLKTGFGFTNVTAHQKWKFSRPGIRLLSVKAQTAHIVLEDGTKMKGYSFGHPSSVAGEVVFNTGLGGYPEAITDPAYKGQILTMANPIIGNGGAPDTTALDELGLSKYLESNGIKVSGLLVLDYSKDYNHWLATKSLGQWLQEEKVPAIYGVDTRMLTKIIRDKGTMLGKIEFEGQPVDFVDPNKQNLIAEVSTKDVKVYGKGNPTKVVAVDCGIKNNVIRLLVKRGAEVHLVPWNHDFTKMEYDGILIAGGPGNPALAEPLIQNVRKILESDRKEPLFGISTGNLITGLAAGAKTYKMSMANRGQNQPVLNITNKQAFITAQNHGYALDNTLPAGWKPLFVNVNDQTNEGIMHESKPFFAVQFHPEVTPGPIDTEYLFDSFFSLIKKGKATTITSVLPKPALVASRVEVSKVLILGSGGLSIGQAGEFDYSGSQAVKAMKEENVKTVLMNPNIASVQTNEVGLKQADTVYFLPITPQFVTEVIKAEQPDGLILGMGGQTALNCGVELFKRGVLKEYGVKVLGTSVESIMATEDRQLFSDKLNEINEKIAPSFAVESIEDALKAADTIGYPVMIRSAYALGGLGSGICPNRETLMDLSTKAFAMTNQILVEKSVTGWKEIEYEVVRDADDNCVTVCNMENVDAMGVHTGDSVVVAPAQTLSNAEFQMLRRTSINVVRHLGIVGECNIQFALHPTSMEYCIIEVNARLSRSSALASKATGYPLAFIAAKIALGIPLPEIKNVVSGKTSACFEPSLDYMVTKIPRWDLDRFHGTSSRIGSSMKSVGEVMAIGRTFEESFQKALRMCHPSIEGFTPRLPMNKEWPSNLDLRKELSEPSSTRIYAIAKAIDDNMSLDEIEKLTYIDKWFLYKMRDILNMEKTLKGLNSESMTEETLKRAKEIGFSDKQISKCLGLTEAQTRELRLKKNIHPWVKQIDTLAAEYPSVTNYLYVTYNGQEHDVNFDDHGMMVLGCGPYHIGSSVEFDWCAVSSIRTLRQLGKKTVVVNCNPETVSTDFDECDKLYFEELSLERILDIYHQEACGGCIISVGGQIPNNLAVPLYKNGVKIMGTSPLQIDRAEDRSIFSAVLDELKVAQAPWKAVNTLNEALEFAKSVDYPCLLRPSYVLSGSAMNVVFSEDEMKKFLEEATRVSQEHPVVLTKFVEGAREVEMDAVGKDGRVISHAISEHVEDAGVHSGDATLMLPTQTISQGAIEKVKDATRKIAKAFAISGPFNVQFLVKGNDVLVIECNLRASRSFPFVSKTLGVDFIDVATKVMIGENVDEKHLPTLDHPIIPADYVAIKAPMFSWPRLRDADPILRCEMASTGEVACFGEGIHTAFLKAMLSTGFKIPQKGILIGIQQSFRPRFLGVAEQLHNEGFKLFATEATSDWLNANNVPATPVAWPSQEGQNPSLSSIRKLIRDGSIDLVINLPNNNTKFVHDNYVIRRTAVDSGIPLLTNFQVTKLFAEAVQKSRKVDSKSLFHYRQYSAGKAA
UniProt Q6PJW8: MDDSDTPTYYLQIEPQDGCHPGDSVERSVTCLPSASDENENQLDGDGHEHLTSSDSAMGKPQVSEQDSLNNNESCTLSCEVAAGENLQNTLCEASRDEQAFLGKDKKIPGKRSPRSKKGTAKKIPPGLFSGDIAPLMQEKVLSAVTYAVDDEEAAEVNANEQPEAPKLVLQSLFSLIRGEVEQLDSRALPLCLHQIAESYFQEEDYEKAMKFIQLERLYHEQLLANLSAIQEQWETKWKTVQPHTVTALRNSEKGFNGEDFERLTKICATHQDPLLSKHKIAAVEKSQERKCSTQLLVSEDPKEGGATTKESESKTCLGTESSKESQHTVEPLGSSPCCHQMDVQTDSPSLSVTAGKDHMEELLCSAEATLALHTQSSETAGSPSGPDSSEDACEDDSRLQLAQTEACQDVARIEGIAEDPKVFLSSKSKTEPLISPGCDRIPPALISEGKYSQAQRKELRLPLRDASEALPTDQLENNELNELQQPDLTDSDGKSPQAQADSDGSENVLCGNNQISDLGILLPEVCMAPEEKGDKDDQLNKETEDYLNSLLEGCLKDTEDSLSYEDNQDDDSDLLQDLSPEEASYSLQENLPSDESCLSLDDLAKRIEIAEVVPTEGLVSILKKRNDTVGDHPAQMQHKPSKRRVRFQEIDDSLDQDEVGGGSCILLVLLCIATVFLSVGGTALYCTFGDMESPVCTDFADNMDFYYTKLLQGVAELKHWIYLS
UniProt A8TX70: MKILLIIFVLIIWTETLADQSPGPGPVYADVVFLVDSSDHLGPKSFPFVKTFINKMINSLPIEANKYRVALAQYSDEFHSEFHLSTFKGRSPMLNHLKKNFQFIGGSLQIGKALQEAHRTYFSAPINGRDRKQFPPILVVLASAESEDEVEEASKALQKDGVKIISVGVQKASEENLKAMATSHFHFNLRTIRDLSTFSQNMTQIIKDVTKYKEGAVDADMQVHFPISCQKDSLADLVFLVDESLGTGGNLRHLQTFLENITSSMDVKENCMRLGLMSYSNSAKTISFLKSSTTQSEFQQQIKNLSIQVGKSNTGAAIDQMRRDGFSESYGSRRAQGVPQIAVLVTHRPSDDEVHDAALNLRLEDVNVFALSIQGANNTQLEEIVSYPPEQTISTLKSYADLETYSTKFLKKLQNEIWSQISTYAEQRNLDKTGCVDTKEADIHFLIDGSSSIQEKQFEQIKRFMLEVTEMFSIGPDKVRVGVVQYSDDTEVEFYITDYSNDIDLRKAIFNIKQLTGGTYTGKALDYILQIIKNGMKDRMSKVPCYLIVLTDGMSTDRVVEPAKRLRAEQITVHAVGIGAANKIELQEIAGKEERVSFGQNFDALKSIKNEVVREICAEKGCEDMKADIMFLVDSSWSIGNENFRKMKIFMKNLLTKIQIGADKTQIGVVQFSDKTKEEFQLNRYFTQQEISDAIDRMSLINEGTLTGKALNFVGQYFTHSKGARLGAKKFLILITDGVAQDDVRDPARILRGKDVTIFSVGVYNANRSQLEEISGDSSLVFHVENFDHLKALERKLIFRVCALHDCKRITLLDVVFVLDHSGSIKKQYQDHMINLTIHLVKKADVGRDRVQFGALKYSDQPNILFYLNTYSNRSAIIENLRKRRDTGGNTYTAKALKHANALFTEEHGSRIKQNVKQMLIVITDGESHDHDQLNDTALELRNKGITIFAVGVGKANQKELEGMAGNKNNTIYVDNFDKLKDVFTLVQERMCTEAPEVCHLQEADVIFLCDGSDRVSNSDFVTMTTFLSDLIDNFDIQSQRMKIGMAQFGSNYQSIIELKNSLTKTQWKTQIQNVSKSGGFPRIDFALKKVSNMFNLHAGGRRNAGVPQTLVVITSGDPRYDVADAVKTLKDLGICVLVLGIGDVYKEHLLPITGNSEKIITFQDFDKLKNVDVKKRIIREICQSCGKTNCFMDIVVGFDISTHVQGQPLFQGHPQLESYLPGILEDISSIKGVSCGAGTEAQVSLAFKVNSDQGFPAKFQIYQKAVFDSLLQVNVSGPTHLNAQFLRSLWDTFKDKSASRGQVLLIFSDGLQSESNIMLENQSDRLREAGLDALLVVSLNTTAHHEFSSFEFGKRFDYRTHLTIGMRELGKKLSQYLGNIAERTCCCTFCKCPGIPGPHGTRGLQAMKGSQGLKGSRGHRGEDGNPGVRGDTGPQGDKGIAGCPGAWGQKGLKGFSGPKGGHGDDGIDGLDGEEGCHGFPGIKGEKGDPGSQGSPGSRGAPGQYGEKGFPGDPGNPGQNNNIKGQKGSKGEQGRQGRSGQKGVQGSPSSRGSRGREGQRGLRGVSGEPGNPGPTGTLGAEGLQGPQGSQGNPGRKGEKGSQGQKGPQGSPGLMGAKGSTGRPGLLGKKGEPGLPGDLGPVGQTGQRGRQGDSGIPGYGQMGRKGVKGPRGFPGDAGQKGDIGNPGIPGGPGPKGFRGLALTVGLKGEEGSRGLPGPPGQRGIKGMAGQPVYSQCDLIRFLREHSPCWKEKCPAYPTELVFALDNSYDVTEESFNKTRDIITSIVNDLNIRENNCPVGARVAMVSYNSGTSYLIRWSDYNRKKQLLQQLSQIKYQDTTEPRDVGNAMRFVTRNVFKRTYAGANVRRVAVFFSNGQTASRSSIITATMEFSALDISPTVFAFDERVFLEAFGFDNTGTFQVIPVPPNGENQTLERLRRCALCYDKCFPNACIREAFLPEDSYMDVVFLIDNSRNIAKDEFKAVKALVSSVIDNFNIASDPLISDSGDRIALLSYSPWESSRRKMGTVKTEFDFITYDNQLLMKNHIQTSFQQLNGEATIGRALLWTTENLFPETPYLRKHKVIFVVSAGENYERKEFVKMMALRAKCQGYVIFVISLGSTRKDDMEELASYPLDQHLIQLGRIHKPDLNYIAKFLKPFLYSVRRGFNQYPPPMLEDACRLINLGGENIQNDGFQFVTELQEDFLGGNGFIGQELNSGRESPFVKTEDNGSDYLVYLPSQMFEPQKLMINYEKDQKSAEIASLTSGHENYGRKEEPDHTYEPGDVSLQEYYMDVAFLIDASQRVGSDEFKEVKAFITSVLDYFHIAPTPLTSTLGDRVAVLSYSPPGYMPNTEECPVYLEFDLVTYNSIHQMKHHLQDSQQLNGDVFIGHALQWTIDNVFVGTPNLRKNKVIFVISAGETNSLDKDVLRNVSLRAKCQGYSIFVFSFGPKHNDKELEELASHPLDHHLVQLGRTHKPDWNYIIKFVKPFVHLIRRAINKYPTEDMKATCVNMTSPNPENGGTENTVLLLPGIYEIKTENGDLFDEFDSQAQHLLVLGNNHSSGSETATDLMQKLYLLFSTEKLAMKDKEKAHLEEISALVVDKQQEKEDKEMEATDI
UniProt Q86VX2, whole entry, looked up: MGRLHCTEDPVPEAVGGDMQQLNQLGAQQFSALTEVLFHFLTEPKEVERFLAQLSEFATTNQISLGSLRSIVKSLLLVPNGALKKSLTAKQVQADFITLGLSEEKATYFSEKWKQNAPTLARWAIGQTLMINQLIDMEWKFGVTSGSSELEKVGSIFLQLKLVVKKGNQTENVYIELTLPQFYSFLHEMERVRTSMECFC
UniProt P36551: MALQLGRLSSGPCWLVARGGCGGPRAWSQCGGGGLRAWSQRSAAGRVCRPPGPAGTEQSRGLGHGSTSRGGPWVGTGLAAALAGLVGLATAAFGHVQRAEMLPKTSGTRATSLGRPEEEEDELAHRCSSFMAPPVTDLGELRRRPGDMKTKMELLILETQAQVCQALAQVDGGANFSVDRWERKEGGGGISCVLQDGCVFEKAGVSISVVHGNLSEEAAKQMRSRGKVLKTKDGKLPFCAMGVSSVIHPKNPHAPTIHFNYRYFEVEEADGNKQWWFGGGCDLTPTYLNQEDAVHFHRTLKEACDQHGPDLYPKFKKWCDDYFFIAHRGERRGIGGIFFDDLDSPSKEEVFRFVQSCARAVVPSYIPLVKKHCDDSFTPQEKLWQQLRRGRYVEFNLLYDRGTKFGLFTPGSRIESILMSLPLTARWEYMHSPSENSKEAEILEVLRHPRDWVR
UniProt Q14746: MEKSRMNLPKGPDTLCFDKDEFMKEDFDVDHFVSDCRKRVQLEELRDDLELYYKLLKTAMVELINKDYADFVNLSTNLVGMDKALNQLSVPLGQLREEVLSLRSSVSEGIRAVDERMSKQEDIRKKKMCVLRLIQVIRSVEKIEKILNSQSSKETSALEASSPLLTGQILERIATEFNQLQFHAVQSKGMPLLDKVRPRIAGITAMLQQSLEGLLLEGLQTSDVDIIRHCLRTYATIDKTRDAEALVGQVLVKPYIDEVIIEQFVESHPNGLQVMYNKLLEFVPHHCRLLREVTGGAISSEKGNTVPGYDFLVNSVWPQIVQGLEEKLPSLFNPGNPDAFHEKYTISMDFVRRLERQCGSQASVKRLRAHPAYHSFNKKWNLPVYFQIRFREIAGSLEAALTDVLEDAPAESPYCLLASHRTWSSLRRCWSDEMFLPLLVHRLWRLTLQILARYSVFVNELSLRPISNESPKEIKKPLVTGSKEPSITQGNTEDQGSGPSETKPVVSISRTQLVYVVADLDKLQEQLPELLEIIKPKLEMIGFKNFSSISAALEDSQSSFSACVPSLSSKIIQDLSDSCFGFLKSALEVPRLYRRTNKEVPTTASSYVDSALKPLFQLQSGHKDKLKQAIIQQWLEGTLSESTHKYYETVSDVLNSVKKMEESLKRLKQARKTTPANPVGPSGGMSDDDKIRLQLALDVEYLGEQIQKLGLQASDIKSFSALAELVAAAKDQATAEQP

Assays:
Assay in all cases: log2 fold change, soluble protein after heating vs DMSO (PISA); higher = thermal stabilisation; K562 lysate, 10 uM; active = over 0.2 and 3.5 SD of the protein, either way, in both replicates (recomputed)
alvocidib = compound: CN1CC[C@H](c2c(O)cc(O)c3c(=O)cc(-c4ccccc4Cl)oc23)[C@H](O)C1 [alvocidib]
Method in brief: (§1)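 To prepare the extract, K562 pellets were dounce-homogenised in PBS pH 7.4 with 1 mM MgCl2, giving crude material at 1 mg/mL protein. This was treated with 10 μM compound for 30 min, then heated in aliquots for 3 min over 48°C-58°C before pooling and addition of NP-40 to 0.5% at 4°C. Centrifugation at 21,000xg for 90 min left soluble protein in the supernatant, which TMTpro 16plex LC-MS/MS quantified with equalised channel sums. Results are log-two fold changes in thermal stability compared with solvent controls, from duplicates.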

Tubastatin A = compound: CN1CCc2c(c3ccccc3n2Cc2ccc(C(=O)NO)cc2)C1 [Tubastatin A]
Method in brief: as §1

[1] = compound: CNC(=O)C1=CC=CC=C1NC2=NC(=NC=C2Cl)NC3=C(C=C(C=C3)N4CCOCC4)OC
Method in brief: as §1

defactinib = compound: CNC(=O)c1ccc(Nc2ncc(C(F)(F)F)c(NCc3nccnc3N(C)S(C)(=O)=O)n2)cc1 [defactinib]
Method in brief: as §1

[2] = compound: CNc1nc(-c2ccc3c(N)n[nH]c3c2)cc(N2C[C@@H](C(=O)NC3CCCCC3)CC[C@H]2C)n1
Method in brief: as §1

encorafenib = compound: COC(=O)N[C@@H](C)CNc1nccc(-c2cn(C(C)C)nc2-c2cc(Cl)cc(NS(C)(=O)=O)c2F)n1 [encorafenib]
Method in brief: as §1

[3] = compound: COC(=O)[C@H](CCSC)NC(=O)C1=C(C=C(C=C1)NC[C@H](CS)N)C2=CC=CC=C2
Method in brief: as §1

alisertib = compound: COc1cc(Nc2ncc3c(n2)-c2ccc(Cl)cc2C(c2c(F)cccc2OC)=NC3)ccc1C(=O)O [alisertib]
Method in brief: as §1

[4] = compound: COc1cc2nc(-c3cc(F)ccc3O)nc(N[C@@H]3CNC[C@H]3C(C)(C)O)c2cc1OC
Method in brief: as §1

gefitinib = compound: COc1cc2ncnc(Nc3ccc(F)c(Cl)c3)c2cc1OCCCN1CCOCC1 [gefitinib]
Method in brief: as §1

lapatinib = compound: CS(=O)(=O)CCNCc1ccc(-c2ccc3ncnc(Nc4ccc(OCc5cccc(F)c5)c(Cl)c4)c3c2)o1 [lapatinib]
Method in brief: as §1

pictilisib = compound: CS(=O)(=O)N1CCN(Cc2cc3nc(-c4cccc5[nH]ncc45)nc(N4CCOCC4)c3s2)CC1 [pictilisib]
Method in brief: as §1

crizotinib = compound: C[C@@H](Oc1cc(-c2cnn(C3CCNCC3)c2)cnc1N)c1c(Cl)ccc(F)c1Cl [crizotinib]
Method in brief: as §1

[5] = compound: C[C@H](C1=CC=C(C=C1)C(=O)NC2=C3C=CNC3=NC=C2)N
Method in brief: as §1

duvelisib = compound: C[C@H](Nc1ncnc2nc[nH]c12)c1cc2cccc(Cl)c2c(=O)n1-c1ccccc1 [duvelisib]
Method in brief: as §1

gandotinib = compound: Cc1cc(Nc2cc(CN3CCOCC3)c3nc(C)c(Cc4ccc(Cl)cc4F)n3n2)n[nH]1 [gandotinib]
Method in brief: as §1

tozasertib = compound: Cc1cc(Nc2cc(N3CCN(C)CC3)nc(Sc3ccc(NC(=O)C4CC4)cc3)n2)n[nH]1 [tozasertib]
Method in brief: as §1

doramapimod = compound: Cc1ccc(-n2nc(C(C)(C)C)cc2NC(=O)Nc2ccc(OCCN3CCOCC3)c3ccccc23)cc1 [doramapimod]
Method in brief: as §1

bafetinib = compound: Cc1ccc(NC(=O)c2ccc(CN3CC[C@H](N(C)C)C3)c(C(F)(F)F)c2)cc1Nc1nccc(-c2cncnc2)n1 [bafetinib]
Method in brief: as §1

[6] = compound: Cc1cccc(CC(=O)N2CCc3c2ccc(-c2cn(C)c4ncnc(N)c24)c3F)n1
Method in brief: as §1

Measured: log2 fold change

COX6C (UniProt P09669)
inactive: alvocidib -0.053 | Tubastatin A 0 | [1] 0.009 | defactinib 0.034 | [2] 0.016 | encorafenib -0.004 | [3] -0.038 | alisertib 0.018 | [4] 0.008 | gefitinib -0.069 | lapatinib -0.014 | pictilisib -0.011 | crizotinib 0.078 | [5] -0.109 | duvelisib -0.039 | gandotinib 0.021 | tozasertib -0.035 | doramapimod -0.026 | bafetinib -0.008 | [6] 0.027

COX11 (UniProt Q9Y6N1)
inactive: alvocidib 0.105 | Tubastatin A 0.024 | [1] -0.018 | defactinib -0.01 | [2] 0.02 | encorafenib -0.062 | [3] 0.011 | alisertib 0.066 | [4] 0.016 | gefitinib -0.051 | lapatinib 0.042 | pictilisib -0.023 | crizotinib 0.021 | [5] -0.007 | duvelisib -0.031 | gandotinib -0.026 | tozasertib -0.053 | doramapimod -0.065 | bafetinib 0.03 | [6] -0.043

CPS1 isoform 3 (UniProt P31327)
inactive: alvocidib -0.022 | Tubastatin A 0.01 | [1] 0.685 | defactinib -0.033 | [2] 0.113 | encorafenib 0.014 | [3] -0.042 | alisertib -0.051 | [4] 0.222 | gefitinib -0.046 | lapatinib -0.021 | pictilisib -0.003 | crizotinib -0.071 | [5] -0.028 | duvelisib -0.077 | gandotinib 0.102 | tozasertib -0.003 | doramapimod -0.062 | bafetinib -0.028 | [6] 0.099

COPS7A (UniProt Q9UBW8)
inactive: alvocidib -0.067 | Tubastatin A 0.033 | [1] -0.01 | defactinib 0.008 | [2] 0.008 | encorafenib 0.058 | [3] -0.009 | alisertib -0.027 | [4] -0.01 | gefitinib -0.032 | lapatinib 0.004 | pictilisib 0.028 | crizotinib 0.019 | [5] -0.016 | duvelisib -0.005 | gandotinib -0.016 | tozasertib 0.041 | doramapimod -0.011 | bafetinib -0.002 | [6] 0.046

COPE (UniProt O14579)
inactive: alvocidib -0.056 | Tubastatin A 0.002 | [1] -0.026 | defactinib 0.059 | [2] -0.017 | encorafenib 0.04 | [3] -0.008 | alisertib 0.033 | [4] -0.001 | gefitinib 0.01 | lapatinib 0.004 | pictilisib 0.021 | crizotinib -0.072 | [5] -0.108 | duvelisib 0.046 | gandotinib 0.097 | tozasertib 0.045 | doramapimod 0.06 | bafetinib -0.009 | [6] 0.135

COPS6 (UniProt Q7L5N1)
inactive: alvocidib 0.007 | Tubastatin A -0.012 | [1] 0.006 | defactinib 0.047 | [2] -0.066 | encorafenib 0.004 | [3] -0.032 | alisertib 0.003 | [4] -0.062 | gefitinib 0.037 | lapatinib 0.009 | pictilisib -0.016 | crizotinib 0.005 | [5] 0.019 | duvelisib 0.031 | gandotinib -0.014 | tozasertib 0.049 | doramapimod -0.006 | bafetinib 0.088 | [6] -0.051

2 records drawn at random from the list so far, as already listed:
COPS6 (UniProt Q7L5N1)
inactive: alvocidib 0.007 | Tubastatin A -0.012 | [1] 0.006 | defactinib 0.047 | [2] -0.066 | encorafenib 0.004 | [3] -0.032 | alisertib 0.003 | [4] -0.062 | gefitinib 0.037 | lapatinib 0.009 | pictilisib -0.016 | crizotinib 0.005 | [5] 0.019 | duvelisib 0.031 | gandotinib -0.014 | tozasertib 0.049 | doramapimod -0.006 | bafetinib 0.088 | [6] -0.051

CPS1 isoform 3 (UniProt P31327)
inactive: alvocidib -0.022 | Tubastatin A 0.01 | [1] 0.685 | defactinib -0.033 | [2] 0.113 | encorafenib 0.014 | [3] -0.042 | alisertib -0.051 | [4] 0.222 | gefitinib -0.046 | lapatinib -0.021 | pictilisib -0.003 | crizotinib -0.071 | [5] -0.028 | duvelisib -0.077 | gandotinib 0.102 | tozasertib -0.003 | doramapimod -0.062 | bafetinib -0.028 | [6] 0.099

(list continues)

CNOT4 isoform 6 (UniProt O95628)
active: doramapimod -0.234
inactive: alvocidib 0.015 | Tubastatin A -0.011 | [1] -0.009 | defactinib 0.001 | [2] -0.069 | encorafenib 0.076 | [3] -0.051 | alisertib -0.003 | [4] -0.041 | gefitinib -0.007 | lapatinib 0.039 | pictilisib -0.06 | crizotinib 0.146 | [5] -0.093 | duvelisib -0.011 | gandotinib 0.075 | tozasertib -0.027 | bafetinib -0.054 | [6] 0.028

COA3 (UniProt Q9Y2R0)
inactive: alvocidib -0.058 | Tubastatin A 0.048 | [1] 0.035 | defactinib 0.06 | [2] -0.09 | encorafenib 0.063 | [3] -0.108 | alisertib 0 | [4] 0.002 | gefitinib -0.024 | lapatinib 0.044 | pictilisib -0.01 | crizotinib -0.014 | [5] -0.023 | duvelisib 0.039 | gandotinib 0.015 | tozasertib 0.047 | doramapimod 0.017 | bafetinib -0.062 | [6] 0.039

COPS3 (UniProt Q9UNS2)
inactive: alvocidib -0.033 | Tubastatin A 0.024 | [1] -0.019 | defactinib -0.015 | [2] 0.005 | encorafenib 0.001 | [3] -0.037 | alisertib -0.036 | [4] 0.006 | gefitinib 0.014 | lapatinib -0.017 | pictilisib 0.005 | crizotinib 0.004 | [5] -0.053 | duvelisib -0.005 | gandotinib 0.037 | tozasertib -0.015 | doramapimod -0.007 | bafetinib 0.008 | [6] 0.038

CNST (UniProt Q6PJW8)
inactive: alvocidib 0 | Tubastatin A -0.055 | [1] 0.043 | defactinib 0.041 | [2] -0.027 | encorafenib 0.03 | [3] -0.096 | alisertib -0.031 | [4] 0.024 | gefitinib 0.002 | lapatinib 0.005 | pictilisib 0 | crizotinib 0.031 | [5] -0.022 | duvelisib -0.007 | gandotinib 0.033 | tozasertib 0.019 | doramapimod 0.005 | bafetinib 0.033 | [6] 0.025

COL6A5 (UniProt A8TX70)
active: [5] -0.966 | [6] 0.486
inactive: alvocidib -0.544 | Tubastatin A 0.029 | [1] -0.048 | defactinib -0.111 | [2] 0.256 | encorafenib -0.088 | [3] 0.1 | alisertib -0.038 | [4] 0.07 | gefitinib -0.034 | lapatinib -0.07 | pictilisib -0.035 | crizotinib -0.197 | duvelisib 0.013 | gandotinib 0.295 | tozasertib -0.099 | doramapimod 0.053 | bafetinib -0.13

COMMD7 (UniProt Q86VX2)
inactive: alvocidib -0.107 | Tubastatin A 0 | [1] 0.046 | defactinib 0.064 | [2] 0.069 | encorafenib 0.016 | [3] -0.229 | alisertib 0.031 | [4] 0.024 | gefitinib -0.023 | lapatinib 0.027 | pictilisib 0.032 | crizotinib -0.018 | [5] -0.096 | duvelisib 0.012 | gandotinib 0.073 | tozasertib -0.023 | doramapimod 0.025 | bafetinib -0.019 | [6] 0.112

CPOX (UniProt P36551)
inactive: alvocidib -0.013 | Tubastatin A 0.015 | [1] 0.095 | defactinib -0.036 | [2] 0.112 | encorafenib 0.002 | [3] -0.056 | alisertib 0.018 | [4] 0 | gefitinib 0.029 | lapatinib -0.005 | pictilisib 0.016 | crizotinib 0.026 | [5] 0.021 | duvelisib 0.041 | gandotinib 0.065 | tozasertib -0.006 | doramapimod -0.009 | bafetinib 0.052 | [6] -0.04

COPZ1 isoform 4 (UniProt P61923)
inactive: alvocidib 0.084 | Tubastatin A 0.055 | [1] 0.081 | defactinib 0.166 | [2] -0.093 | encorafenib -0.011 | [3] -0.049 | alisertib 0.045 | [4] -0.077 | gefitinib -0.142 | lapatinib 0.161 | pictilisib 0.062 | crizotinib 0.09 | [5] 0.083 | duvelisib -0.022 | gandotinib -0.066 | tozasertib 0.028 | doramapimod -0.044 | bafetinib -0.048 | [6] -0.088

COG2 (UniProt Q14746)
inactive: alvocidib -0.032 | Tubastatin A -0.114 | [1] -0.009 | defactinib 0.05 | [2] 0.028 | encorafenib -0.009 | [3] 0.052 | alisertib 0.021 | [4] -0.022 | gefitinib -0.039 | lapatinib -0.009 | pictilisib -0.03 | crizotinib -0.041 | [5] -0.025 | duvelisib 0.025 | gandotinib -0.118 | tozasertib 0.012 | doramapimod 0.009 | bafetinib -0.027 | [6] 0.02

COTL1 (UniProt Q14019)
inactive: alvocidib 0.021 | Tubastatin A 0.004 | [1] -0.021 | defactinib -0.04 | [2] -0.008 | encorafenib -0.033 | [3] -0.029 | alisertib -0.009 | [4] -0.001 | gefitinib -0.002 | lapatinib 0.007 | pictilisib 0.016 | crizotinib 0.045 | [5] 0.245 | duvelisib -0.009 | gandotinib -0.062 | tozasertib 0.024 | doramapimod -0.044 | bafetinib 0.102 | [6] -0.122
